In the supplement of paper PMC10849652:
The list shows a part of the results.

By UniProt entry, the sequences of proteins in these tests, tags left out. Where a name states a change or a piece, a line headed by the entry shows the natural chain unless it says otherwise.
UniProt Q08495: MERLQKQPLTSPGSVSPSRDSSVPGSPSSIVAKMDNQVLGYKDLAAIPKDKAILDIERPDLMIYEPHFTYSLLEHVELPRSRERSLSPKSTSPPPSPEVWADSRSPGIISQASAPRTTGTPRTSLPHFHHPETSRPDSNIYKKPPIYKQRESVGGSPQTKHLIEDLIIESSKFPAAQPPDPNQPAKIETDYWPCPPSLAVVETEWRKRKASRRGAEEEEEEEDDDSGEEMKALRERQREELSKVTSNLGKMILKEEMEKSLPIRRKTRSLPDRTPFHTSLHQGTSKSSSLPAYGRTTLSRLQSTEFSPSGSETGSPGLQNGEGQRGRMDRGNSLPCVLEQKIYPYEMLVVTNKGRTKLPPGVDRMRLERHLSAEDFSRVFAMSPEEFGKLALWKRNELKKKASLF
UniProt Q96LJ7: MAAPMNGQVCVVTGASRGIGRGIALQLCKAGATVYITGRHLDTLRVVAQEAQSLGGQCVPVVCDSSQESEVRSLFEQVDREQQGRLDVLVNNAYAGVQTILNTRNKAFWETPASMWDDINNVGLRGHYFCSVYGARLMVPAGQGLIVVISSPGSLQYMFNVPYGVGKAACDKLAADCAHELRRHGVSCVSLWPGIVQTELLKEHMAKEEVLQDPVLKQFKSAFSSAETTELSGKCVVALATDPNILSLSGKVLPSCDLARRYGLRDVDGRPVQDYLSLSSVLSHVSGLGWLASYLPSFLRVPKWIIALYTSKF
UniProt Q9NSV4, whole entry, looked up: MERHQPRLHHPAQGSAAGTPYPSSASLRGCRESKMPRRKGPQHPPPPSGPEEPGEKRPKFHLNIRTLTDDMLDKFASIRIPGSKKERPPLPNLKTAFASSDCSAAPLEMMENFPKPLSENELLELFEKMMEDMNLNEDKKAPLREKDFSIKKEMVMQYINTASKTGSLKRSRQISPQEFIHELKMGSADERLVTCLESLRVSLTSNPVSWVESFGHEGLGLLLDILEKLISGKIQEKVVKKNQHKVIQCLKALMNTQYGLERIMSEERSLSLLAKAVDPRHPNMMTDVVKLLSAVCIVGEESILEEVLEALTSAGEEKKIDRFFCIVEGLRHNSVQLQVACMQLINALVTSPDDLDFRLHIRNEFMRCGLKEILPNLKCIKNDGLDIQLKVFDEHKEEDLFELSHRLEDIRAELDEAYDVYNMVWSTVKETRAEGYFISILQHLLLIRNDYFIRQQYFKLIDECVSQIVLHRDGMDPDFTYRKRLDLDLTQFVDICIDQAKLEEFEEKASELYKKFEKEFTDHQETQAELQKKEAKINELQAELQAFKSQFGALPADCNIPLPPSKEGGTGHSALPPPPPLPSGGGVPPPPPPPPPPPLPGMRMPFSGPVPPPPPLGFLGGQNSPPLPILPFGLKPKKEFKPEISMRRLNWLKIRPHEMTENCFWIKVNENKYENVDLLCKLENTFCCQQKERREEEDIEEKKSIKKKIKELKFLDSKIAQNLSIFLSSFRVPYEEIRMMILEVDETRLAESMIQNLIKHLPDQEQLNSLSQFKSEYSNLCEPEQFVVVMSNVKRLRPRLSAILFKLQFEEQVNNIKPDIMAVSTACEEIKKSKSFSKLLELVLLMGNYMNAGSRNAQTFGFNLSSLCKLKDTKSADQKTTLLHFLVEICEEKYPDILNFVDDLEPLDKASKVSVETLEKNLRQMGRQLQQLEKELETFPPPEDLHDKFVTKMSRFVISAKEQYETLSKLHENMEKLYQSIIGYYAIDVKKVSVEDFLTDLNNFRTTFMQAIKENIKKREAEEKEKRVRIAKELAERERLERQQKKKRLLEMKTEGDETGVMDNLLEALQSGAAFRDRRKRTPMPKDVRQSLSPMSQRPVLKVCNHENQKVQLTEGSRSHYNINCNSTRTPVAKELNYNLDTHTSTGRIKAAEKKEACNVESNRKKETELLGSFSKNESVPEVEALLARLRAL
UniProt O43143: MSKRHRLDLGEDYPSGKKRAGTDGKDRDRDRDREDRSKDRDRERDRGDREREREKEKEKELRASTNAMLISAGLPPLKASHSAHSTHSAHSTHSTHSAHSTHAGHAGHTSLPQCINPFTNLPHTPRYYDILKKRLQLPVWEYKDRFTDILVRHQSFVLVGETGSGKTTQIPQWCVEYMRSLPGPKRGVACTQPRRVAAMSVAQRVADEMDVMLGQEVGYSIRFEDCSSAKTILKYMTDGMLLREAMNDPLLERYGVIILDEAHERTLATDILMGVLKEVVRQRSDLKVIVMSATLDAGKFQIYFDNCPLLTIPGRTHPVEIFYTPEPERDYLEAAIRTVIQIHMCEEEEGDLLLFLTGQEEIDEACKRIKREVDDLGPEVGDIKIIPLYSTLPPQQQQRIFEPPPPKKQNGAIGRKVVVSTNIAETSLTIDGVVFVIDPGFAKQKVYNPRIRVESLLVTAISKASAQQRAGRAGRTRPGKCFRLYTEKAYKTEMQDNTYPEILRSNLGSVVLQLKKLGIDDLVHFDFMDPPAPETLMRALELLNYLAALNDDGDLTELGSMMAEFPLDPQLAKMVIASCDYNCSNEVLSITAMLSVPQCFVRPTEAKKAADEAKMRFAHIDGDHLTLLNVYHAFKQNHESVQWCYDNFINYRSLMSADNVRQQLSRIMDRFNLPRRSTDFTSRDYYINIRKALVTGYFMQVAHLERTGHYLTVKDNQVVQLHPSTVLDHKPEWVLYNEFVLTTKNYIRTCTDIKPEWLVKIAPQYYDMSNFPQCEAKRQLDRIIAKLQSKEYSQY
UniProt Q92620: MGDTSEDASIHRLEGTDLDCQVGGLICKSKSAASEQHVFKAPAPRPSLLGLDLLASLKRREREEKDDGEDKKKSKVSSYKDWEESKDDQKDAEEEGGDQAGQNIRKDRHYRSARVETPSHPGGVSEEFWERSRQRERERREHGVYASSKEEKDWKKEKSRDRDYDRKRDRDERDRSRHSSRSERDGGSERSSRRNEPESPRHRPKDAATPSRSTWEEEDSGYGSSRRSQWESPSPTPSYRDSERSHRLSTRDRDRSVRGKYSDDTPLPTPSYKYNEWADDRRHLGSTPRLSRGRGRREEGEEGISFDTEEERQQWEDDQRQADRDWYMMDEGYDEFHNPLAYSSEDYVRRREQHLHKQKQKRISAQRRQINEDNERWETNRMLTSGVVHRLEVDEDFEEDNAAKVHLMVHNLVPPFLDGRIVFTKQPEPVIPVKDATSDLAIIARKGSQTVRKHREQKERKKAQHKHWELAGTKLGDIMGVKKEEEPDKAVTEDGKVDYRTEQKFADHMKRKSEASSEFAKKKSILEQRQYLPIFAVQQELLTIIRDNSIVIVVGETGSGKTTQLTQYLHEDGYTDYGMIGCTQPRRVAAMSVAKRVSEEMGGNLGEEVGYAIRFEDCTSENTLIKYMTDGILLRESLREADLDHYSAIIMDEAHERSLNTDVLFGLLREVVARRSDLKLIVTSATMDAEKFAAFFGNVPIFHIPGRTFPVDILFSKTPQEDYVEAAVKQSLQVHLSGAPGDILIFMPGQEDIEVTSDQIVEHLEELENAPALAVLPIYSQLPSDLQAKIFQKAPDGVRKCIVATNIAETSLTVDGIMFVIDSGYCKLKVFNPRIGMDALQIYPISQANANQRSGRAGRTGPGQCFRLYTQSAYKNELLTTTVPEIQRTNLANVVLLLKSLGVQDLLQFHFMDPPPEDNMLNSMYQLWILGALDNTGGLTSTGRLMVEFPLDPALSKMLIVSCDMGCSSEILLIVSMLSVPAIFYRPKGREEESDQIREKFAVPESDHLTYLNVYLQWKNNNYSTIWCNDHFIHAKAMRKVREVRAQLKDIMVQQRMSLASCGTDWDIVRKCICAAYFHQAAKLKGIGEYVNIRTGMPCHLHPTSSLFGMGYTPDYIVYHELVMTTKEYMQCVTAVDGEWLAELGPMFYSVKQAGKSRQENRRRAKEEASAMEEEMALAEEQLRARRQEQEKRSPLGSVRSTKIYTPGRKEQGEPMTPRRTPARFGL
UniProt Q9BTZ2: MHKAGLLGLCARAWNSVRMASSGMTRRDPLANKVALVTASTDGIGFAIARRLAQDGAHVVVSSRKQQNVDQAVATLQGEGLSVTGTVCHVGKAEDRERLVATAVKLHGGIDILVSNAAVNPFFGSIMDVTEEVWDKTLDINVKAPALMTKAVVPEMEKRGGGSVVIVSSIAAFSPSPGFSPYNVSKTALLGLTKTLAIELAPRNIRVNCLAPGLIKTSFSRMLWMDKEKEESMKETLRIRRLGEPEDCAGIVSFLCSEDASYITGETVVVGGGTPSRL
UniProt Q86YN1: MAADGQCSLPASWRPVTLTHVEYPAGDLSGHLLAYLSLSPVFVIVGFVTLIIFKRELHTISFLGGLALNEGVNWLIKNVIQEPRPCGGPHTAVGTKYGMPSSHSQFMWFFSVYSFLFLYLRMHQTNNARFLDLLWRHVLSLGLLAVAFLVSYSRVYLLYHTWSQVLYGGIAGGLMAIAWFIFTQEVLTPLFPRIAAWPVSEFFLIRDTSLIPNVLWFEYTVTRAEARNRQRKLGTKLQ
UniProt Q8TDM6: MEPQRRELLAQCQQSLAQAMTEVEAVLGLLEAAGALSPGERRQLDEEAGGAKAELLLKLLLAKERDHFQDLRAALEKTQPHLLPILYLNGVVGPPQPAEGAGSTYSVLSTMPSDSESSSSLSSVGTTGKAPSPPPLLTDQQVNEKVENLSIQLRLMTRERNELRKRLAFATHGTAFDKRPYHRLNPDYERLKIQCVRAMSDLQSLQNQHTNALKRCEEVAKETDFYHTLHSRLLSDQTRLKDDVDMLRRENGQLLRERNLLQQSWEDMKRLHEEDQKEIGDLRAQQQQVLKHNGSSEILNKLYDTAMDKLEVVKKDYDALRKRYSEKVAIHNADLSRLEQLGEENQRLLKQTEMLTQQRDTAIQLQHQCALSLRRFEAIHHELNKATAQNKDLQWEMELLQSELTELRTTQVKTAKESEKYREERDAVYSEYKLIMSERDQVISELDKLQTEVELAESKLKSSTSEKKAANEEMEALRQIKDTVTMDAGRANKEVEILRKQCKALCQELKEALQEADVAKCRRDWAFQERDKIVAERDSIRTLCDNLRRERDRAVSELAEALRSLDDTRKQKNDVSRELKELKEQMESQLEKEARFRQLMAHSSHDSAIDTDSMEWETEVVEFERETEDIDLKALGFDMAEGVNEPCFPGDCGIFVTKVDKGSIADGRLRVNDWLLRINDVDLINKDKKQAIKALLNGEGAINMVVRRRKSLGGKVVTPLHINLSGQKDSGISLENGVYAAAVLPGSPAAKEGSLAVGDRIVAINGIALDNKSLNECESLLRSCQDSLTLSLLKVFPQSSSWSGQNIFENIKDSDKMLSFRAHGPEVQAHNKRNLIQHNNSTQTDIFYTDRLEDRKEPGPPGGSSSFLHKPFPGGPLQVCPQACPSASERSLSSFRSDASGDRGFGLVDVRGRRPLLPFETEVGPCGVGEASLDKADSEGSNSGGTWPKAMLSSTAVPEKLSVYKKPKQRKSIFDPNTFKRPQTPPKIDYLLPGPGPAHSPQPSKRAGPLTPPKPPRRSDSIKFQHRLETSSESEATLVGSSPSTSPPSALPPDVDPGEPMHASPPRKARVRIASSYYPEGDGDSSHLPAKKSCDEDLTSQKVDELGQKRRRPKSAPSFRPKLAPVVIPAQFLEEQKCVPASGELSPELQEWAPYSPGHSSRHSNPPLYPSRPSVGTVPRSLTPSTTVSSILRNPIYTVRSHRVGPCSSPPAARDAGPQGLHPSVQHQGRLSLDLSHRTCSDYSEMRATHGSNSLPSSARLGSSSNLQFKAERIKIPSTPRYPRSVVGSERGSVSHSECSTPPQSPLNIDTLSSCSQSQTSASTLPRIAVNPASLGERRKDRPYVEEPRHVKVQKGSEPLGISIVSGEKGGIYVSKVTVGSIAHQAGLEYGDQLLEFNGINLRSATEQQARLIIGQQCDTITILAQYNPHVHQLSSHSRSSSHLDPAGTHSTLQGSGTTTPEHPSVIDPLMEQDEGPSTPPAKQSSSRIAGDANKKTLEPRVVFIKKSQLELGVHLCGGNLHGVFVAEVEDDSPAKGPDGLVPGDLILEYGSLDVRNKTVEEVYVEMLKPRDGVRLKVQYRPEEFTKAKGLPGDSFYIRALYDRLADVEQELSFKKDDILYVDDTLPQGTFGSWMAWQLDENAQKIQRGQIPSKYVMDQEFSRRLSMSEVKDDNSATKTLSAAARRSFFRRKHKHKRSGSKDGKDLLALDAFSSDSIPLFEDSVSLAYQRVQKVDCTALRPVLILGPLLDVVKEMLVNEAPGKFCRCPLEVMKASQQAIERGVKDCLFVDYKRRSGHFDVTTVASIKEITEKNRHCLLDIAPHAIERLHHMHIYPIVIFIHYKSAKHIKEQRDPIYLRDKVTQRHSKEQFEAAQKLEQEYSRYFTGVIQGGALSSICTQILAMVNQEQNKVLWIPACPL

Legend:
Assay in all cases: log2 fold change, soluble protein after heating vs DMSO (PISA); higher = thermal stabilisation; K562 lysate, 10 uM; active = over 0.2 and 3.5 SD of the protein, either way, in both replicates (recomputed)
[1] = compound: NCC(=O)Nc1ccc(-n2nc(C(F)(F)F)cc2-c2ccc3c(ccc4ccccc43)c2)cc1
How it was run: (§1)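 K562 pellets were dounce-homogenised in PBS pH 7.4 containing 1 mM MgCl2, and the crude extract, at 1 mg/mL protein, was exposed to 10 μM compound for 30 min. Aliquots were heated for 3 min across 48°C-58°C, pooled, brought to 0.5% NP-40 at 4°C and spun at 21,000xg for 90 min, with the supernatant taken as soluble protein. TMTpro 16plex LC-MS/MS with equalised channel sums quantified that protein. Values are log-two fold changes in thermal stability relative to solvent controls, taken from duplicates.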

vorinostat = compound: O=C(CCCCCCC(=O)Nc1ccccc1)NO [vorinostat]
How it was run: as §1

silmitasertib = compound: O=C(O)c1ccc2c(c1)nc(Nc1cccc(Cl)c1)c1ccncc12 [silmitasertib]
How it was run: as §1

[2] = compound: O=C1NC(=O)C(c2cnc3ccccn23)=C1c1cn2c3c(cc(F)cc13)CN(C(=O)N1CCCCC1)CC2
How it was run: as §1

entospletinib = compound: c1cn2cc(-c3ccc4cn[nH]c4c3)nc(Nc3ccc(N4CCOCC4)cc3)c2n1 [entospletinib]
How it was run: as §1

DHRS11 (UniProt Q6UWP2)
log2 fold change [1]: inactive: -0.006
log2 fold change (vorinostat): active: -0.255
log2 fold change (silmitasertib): inactive: -0.014
log2 fold change [2]: inactive: 0.02
log2 fold change (entospletinib): inactive: -0.011

DHPS (UniProt P49366)
log2 fold change [1]: inactive: -0.009
log2 fold change (vorinostat): inactive: 0.06
log2 fold change (silmitasertib): inactive: -0.003
log2 fold change [2]: inactive: 0.021
log2 fold change (entospletinib): inactive: 0.008

DHX32 (UniProt Q7L7V1)
log2 fold change [1]: inactive: -0.044
log2 fold change (vorinostat): inactive: -0.351
log2 fold change (silmitasertib): inactive: 0.028
log2 fold change [2]: inactive: 0.097
log2 fold change (entospletinib): inactive: -0.002

DMXL2 isoform 3 (UniProt Q8TDJ6)
log2 fold change [1]: inactive: 0.031
log2 fold change (vorinostat): inactive: -0.195
log2 fold change (silmitasertib): inactive: 0.086
log2 fold change [2]: inactive: -0.01
log2 fold change (entospletinib): inactive: 0

DMTN isoform 2 (UniProt Q08495)
log2 fold change [1]: inactive: -0.06
log2 fold change (vorinostat): inactive: 0.111
log2 fold change (silmitasertib): inactive: 0.003
log2 fold change [2]: inactive: 0.042
log2 fold change (entospletinib): inactive: -0.052

DHRS1 (UniProt Q96LJ7)
log2 fold change [1]: inactive: -0.154
log2 fold change (vorinostat): active: -0.561
log2 fold change (silmitasertib): inactive: -0.021
log2 fold change [2]: inactive: -0.055
log2 fold change (entospletinib): inactive: -0.138

DIAPH3 (UniProt Q9NSV4)
log2 fold change [1]: inactive: -0.047
log2 fold change (vorinostat): active: -0.584
log2 fold change (silmitasertib): inactive: 0.067
log2 fold change [2]: inactive: -0.006
log2 fold change (entospletinib): inactive: -0.017

DNAH12 (UniProt Q6ZR08)
log2 fold change [1]: inactive: 0.037

DHX34 (UniProt Q14147)
log2 fold change [1]: inactive: 0.066
log2 fold change (vorinostat): inactive: -0.081
log2 fold change (silmitasertib): inactive: -0.009
log2 fold change [2]: inactive: -0.01
log2 fold change (entospletinib): inactive: 0.043

DIS3L2 (UniProt Q8IYB7)
log2 fold change [1]: inactive: -0.014
log2 fold change (vorinostat): inactive: -0.172
log2 fold change (silmitasertib): inactive: 0.108
log2 fold change [2]: inactive: -0.079
log2 fold change (entospletinib): inactive: 0.01

DHX15 (UniProt O43143)
log2 fold change [1]: inactive: -0.006
log2 fold change (vorinostat): inactive: 0.052
log2 fold change (silmitasertib): inactive: 0.004
log2 fold change [2]: inactive: 0.014
log2 fold change (entospletinib): inactive: 0.006

DOCK9 isoform 4 (UniProt Q9BZ29)
log2 fold change [1]: inactive: 0.025
log2 fold change (vorinostat): inactive: -0.161
log2 fold change (silmitasertib): inactive: -0.022
log2 fold change [2]: inactive: 0.012
log2 fold change (entospletinib): inactive: -0.041

DNA2 (UniProt P51530)
log2 fold change [1]: inactive: -0.059
log2 fold change (vorinostat): active: -0.448
log2 fold change (silmitasertib): inactive: 0.127
log2 fold change [2]: inactive: -0.027
log2 fold change (entospletinib): inactive: -0.053

DNAJC3 (UniProt Q13217)
log2 fold change [1]: inactive: -0.029
log2 fold change (vorinostat): inactive: 0.064
log2 fold change (silmitasertib): inactive: 0.017
log2 fold change [2]: inactive: 0.033
log2 fold change (entospletinib): inactive: 0

DHX38 (UniProt Q92620)
log2 fold change [1]: inactive: -0.032
log2 fold change (vorinostat): inactive: 0.011
log2 fold change (silmitasertib): inactive: 0.003
log2 fold change [2]: inactive: -0.005
log2 fold change (entospletinib): inactive: 0.007

DHRS4 (UniProt Q9BTZ2)
log2 fold change [1]: inactive: -0.026
log2 fold change (vorinostat): inactive: -0.009
log2 fold change (silmitasertib): inactive: -0.003
log2 fold change [2]: inactive: -0.014
log2 fold change (entospletinib): inactive: -0.019

DIAPH1 (UniProt O60610)
log2 fold change [1]: inactive: 0.013
log2 fold change (vorinostat): inactive: -0.014
log2 fold change (silmitasertib): inactive: 0.009
log2 fold change [2]: inactive: -0.02
log2 fold change (entospletinib): inactive: -0.003

DOLPP1 (UniProt Q86YN1)
log2 fold change [1]: inactive: 0.021
log2 fold change (vorinostat): inactive: 0.054
log2 fold change (silmitasertib): inactive: 0.058
log2 fold change [2]: inactive: 0.072
log2 fold change (entospletinib): inactive: 0.018

DGUOK (UniProt Q16854)
log2 fold change [1]: inactive: 0.036
log2 fold change (vorinostat): inactive: 0.125
log2 fold change (silmitasertib): inactive: -0.042
log2 fold change [2]: inactive: 0.002
log2 fold change (entospletinib): inactive: -0.018

DLGAP5 (UniProt Q15398)
log2 fold change [1]: inactive: -0.008
log2 fold change (vorinostat): active: -0.252
log2 fold change (silmitasertib): inactive: -0.002
log2 fold change [2]: inactive: -0.006
log2 fold change (entospletinib): inactive: -0.004

DLG5 (UniProt Q8TDM6)
log2 fold change [1]: inactive: 0.127

DNAJC7 (UniProt Q99615)
log2 fold change [1]: inactive: -0.069
log2 fold change (vorinostat): inactive: -0.259
log2 fold change (silmitasertib): inactive: 0.049
log2 fold change [2]: inactive: -0.073
log2 fold change (entospletinib): inactive: 0.048

DNAH10 (UniProt Q8IVF4)
log2 fold change [1]: inactive: 0.103
log2 fold change (vorinostat): inactive: 0.065
log2 fold change (silmitasertib): inactive: 0
log2 fold change [2]: inactive: 0.069
log2 fold change (entospletinib): inactive: 0.065

DOK3 (UniProt Q7L591)
log2 fold change [1]: inactive: 0.153
log2 fold change (vorinostat): inactive: -0.028
log2 fold change (silmitasertib): inactive: -0.017
log2 fold change [2]: inactive: 0.032
log2 fold change (entospletinib): inactive: 0.039

DNAJA1 (UniProt P31689)
log2 fold change [1]: inactive: 0.021
log2 fold change (vorinostat): inactive: -0.013
log2 fold change (silmitasertib): inactive: 0.017
log2 fold change [2]: inactive: -0.004
log2 fold change (entospletinib): inactive: 0.011

DHCR24 (UniProt Q15392)
log2 fold change [1]: inactive: 0.009
log2 fold change (vorinostat): inactive: 0.098
log2 fold change (silmitasertib): inactive: -0.011
log2 fold change [2]: inactive: -0.054
log2 fold change (entospletinib): inactive: -0.064
